Measurements: PubChem BioAssay AID540276 (National Center for Advancing Translational Sciences (NCATS), 2011)
Where “and” joins values, the source holds several entries; their conditions need not be identical. Equal values may be shown once. About 5,400 (1.8%) of roughly 300,000 compounds were called active. The inconclusive results got no clear call from the source; some entries with a clear call stand among them for comparison. Calls come from the whole dose curve; tested in HEK293 cells. Where the call is inconclusive, the potency comes from a doubtful curve fit.

test: qHTS for inhibitors of binding or entry into cells for Marburg Virus; details: Marburg virus pseudotyped entry inhibition, cell reporter; series mostly up to 37.8 µM
Potency is the fitted concentration of half-maximal effect.

Row | Compound | Potency
1 | C[C@H]1C[C@@H](C)O[C@@]2(C1)C(=O)Nc1ccccc12 | inconclusive: 29.9 nM [activator, full curve, poor fit] and inconclusive: 376 nM [activator, partial curve, poor fit]
2 | Cc1ccc2[nH]c(C)c(CCNC(=O)NC3CCCCC3)c2c1 | inconclusive: 3.16 µM [inhibitor, partial curve, poor fit]
3 | O=C(NCC1CCCCC1)c1cccc(Br)c1 | inconclusive: 6.31 µM [activator, single point]
4 | Cc1ccc(NC(=O)Nc2ccc(F)cc2)cc1Cl | inconclusive: 0.562 µM [activator, full curve, poor fit]
5 | Cn1cnc([N+](=O)[O-])c1S(=O)(=O)Oc1cccc2ccccc12 | inconclusive: 5.62 µM [inhibitor, full curve, poor fit]
6 | Cc1cc(C(=O)Nc2c(C)nn(Cc3ccccc3Cl)c2C)no1 | inactive
7 | CCOc1ccc(Br)cc1C(=O)N/N=C/c1ccc([N+](=O)[O-])cc1 | inconclusive: 0.631 µM [inhibitor, partial curve, poor fit]
8 | Cc1ccccc1NC(=O)CC1SC(=O)N(c2ccccc2)C1=O (stereo not given) | inactive
9 | CC1CCN(CCCn2c(=S)[nH]c3ccc(N4CCOCC4)cc3c2=O)CC1 | inconclusive: 0.92 µM [inhibitor, full curve]
10 | CCN(CC)S(=O)(=O)c1cc(NC(=O)c2cccc(N3C(=O)CCC3=O)c2)ccc1Cl | inactive
11 | COc1ccc(OC)c(-c2cc(C(=O)N3CCOCC3)no2)c1 | inactive
12 | CCN(CC)c1ccc(S(=O)(=O)Nc2cc(Cl)ccc2Cl)cc1NC(=S)NC(=O)C1CCCC1 | inconclusive: 35.5 µM [inhibitor, single point]
13 | CCOCCc1nnc(NC(=O)C(=O)c2cc(C)n(-c3cccc(Cl)c3)c2C)s1 | inactive
14 | COc1ccc(-n2nc(C(=O)NCC(=O)Nc3cc(OC)c(OC)c(OC)c3)c3ccccc3c2=O)cc1OC | inconclusive: 0.562 µM [inhibitor, full curve, poor fit]
15 | Cc1ccc(C(=O)c2ccccc2C(=O)OCC(=O)N2CCCC2)cc1 | inconclusive: 1.26 µM [activator, partial curve, poor fit]
16 | O=C(NCc1nnc(SCc2ccccc2)n1-c1ccc(F)cc1)C12CC3CC(CC(C3)C1)C2 | inconclusive: 14.1 µM [inhibitor, single point]
17 | CCOC(=O)c1cnc2ccccc2c1Nc1ccc(N2CCOCC2)cc1 | inactive
18 | O=C(c1ccc(C(F)(F)F)cc1)C1CCCN(C(=O)CN2C(=O)CSC2=O)C1 (stereo not given) | inconclusive: 2.51 µM [activator, full curve]
19 | COc1cccc(-c2nc(CS(=O)(=O)CC(=O)NCc3ccccc3)c(C)o2)c1 | inactive
20 | CC1=C(C(=O)Nc2ccc(C)cc2C)C(c2ccc(C(C)C)cc2)n2nc(C(F)(F)F)nc2N1 (stereo not given) | inactive

Row | Compound | Potency
21 | CCN(CC)C(=S)SCC(=O)c1c(C)[nH]c2ccccc12 | inconclusive: 3.16 µM [activator, full curve, poor fit]
22 | CN1CCc2cc(O)cc3c2[C@H]1Cc1ccc(O)c(O)c1-3 | inactive and inconclusive: 11.2 µM [inhibitor, partial curve]
23 | CCOC(=O)c1c(C=O)c(C)n(Cc2ccc(C)cc2)c1C | inconclusive: 16.4 µM [inhibitor, partial curve, poor fit]
24 | CCOc1ccc(CNCCNC(=O)c2nonc2N)cc1 | inconclusive: 4.47 µM [activator, full curve, poor fit]
25 | CC(C)c1ccc(NS(=O)(=O)c2ccc3[nH]cc(C(=O)NC4CCCCC4)c(=O)c3c2)cc1 | inconclusive: 25.1 µM [activator, single point]
26 | COc1cccc(CNC(=O)C2CCN(S(=O)(=O)N3CCC4(CC3)OCCO4)CC2)c1 | inconclusive: 6.31 µM [activator, partial curve, poor fit]
27 | Cc1cccc(OCCn2nnc3sc4c(c3c2=O)CCCC4)c1 | inconclusive: 22.4 µM [activator, single point]
28 | Cc1ccccc1Cn1c(=O)n(CC2CCC(C(=O)NCCc3ccccc3)CC2)c(=O)c2ccccc21 (stereo not given) | inconclusive: 6.31 µM [activator, full curve]
29 | CN(Cc1ccccc1Cl)C(=O)C1CC(=O)N(c2ccc3c(c2)OCCO3)C1 (stereo not given) | inactive
30 | Cc1c(-n2c(=O)n(Cc3ccccc3)c(=O)c3[nH]cnc32)cccc1S(C)=O (stereo not given) | inconclusive: 0.158 µM [inhibitor, single point]
31 | O=C(NC12CC3CC(CC(C3)C1)C2)c1cc2nc(-c3ccco3)cc(C(F)(F)F)n2n1 | inconclusive: 35.5 µM [inhibitor, single point]
32 | CN1/C(=C\C=N\NC(=O)c2ccccc2Br)C(C)(C)c2ccccc21 | inconclusive: 32.6 µM [inhibitor, single point]
33 | CNCc1ccccc1Sc1cccc(O)c1 | inconclusive: 35.5 µM [inhibitor, single point]
34 | CC1(C)CC(NC(=O)c2cccc(S(=O)(=O)N(Cc3ccccc3)c3ccccc3)c2)CC(C)(C)N1 | inconclusive: 35.5 µM [inhibitor, single point]
35 | CCCCNS(=O)(=O)c1ccc2nc(SCC(=O)Nc3cc(C)cc(C)c3)[nH]c2c1 | inconclusive: 11.2 µM [inhibitor, partial curve, poor fit]
36 | CN(C)c1nc2ccccc2n(C)c1=O | inactive
37 | CCOc1ccc(C(N)=O)cc1OC | inconclusive: 2.51 µM [activator, partial curve, poor fit]
38 | CCOc1ccc(C(=O)NCC(=O)NCCSc2ccc(Br)cc2)cc1OCC | inconclusive: 35.5 µM [inhibitor, single point]
39 | COc1cc(-c2nc(CN(C)C(C)c3ccncn3)c(C)o2)ccc1F (stereo not given) | inconclusive: 35.5 µM [inhibitor, single point]
40 | O=C(CCl)N1CCN2C(=O)c3ccccc3C12c1ccc(Cl)cc1 (stereo not given) | inconclusive: 35.5 µM [inhibitor, single point]

From no. 39 to 40, as listed above:
Row | Compound | Potency
39 | COc1cc(-c2nc(CN(C)C(C)c3ccncn3)c(C)o2)ccc1F (stereo not given) | inconclusive: 35.5 µM [inhibitor, single point]
40 | O=C(CCl)N1CCN2C(=O)c3ccccc3C12c1ccc(Cl)cc1 (stereo not given) | inconclusive: 35.5 µM [inhibitor, single point]
